In doi:10.1101/2023.04.12.536585:
No constants are given. Whether binding was seen depends on the method and setting. Some binding calls cover weakened binding; strength is not graded here.

Protein sequences, listed by entry. Tags and fused reporters are not part of them.
UniProt P48736: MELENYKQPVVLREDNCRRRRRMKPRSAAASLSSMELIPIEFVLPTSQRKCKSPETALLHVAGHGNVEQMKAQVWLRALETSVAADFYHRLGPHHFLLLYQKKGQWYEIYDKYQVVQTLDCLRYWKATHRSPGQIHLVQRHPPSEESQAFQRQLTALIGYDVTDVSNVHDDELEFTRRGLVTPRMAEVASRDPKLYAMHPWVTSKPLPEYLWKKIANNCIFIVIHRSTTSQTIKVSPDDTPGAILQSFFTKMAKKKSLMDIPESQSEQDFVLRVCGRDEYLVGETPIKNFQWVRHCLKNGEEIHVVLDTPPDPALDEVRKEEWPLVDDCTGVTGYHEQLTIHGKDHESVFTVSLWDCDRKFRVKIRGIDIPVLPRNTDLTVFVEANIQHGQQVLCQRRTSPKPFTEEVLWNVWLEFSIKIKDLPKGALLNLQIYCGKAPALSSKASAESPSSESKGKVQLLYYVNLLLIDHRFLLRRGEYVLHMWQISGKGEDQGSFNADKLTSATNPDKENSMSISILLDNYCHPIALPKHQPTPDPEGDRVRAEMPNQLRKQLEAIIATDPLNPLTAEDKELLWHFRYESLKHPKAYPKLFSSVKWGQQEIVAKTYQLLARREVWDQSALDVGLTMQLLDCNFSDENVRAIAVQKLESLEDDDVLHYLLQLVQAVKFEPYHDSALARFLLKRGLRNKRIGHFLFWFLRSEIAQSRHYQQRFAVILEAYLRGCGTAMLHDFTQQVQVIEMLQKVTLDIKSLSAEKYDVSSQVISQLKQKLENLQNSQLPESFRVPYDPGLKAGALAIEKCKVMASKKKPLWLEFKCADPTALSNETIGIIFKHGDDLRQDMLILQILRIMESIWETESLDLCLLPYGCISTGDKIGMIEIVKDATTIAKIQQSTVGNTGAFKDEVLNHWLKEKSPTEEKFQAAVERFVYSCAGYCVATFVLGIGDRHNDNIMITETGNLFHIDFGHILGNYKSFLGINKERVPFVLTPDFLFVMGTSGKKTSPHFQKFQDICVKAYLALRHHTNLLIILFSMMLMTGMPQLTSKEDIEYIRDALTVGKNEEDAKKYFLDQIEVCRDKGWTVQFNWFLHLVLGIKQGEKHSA

Tests used:
[1] = target: T1, Sus scrofa p101 (porcine (Sus scrofa)) (UniProt O02696); assay: co-purification (nickel affinity, streptavidin affinity, SEC); p110γ co-expressed in Sf9 with N-terminally 10xHis-2xStrep-tagged p84 or p101; complex purified through the tag on the regulatory subunit
T1 sequence: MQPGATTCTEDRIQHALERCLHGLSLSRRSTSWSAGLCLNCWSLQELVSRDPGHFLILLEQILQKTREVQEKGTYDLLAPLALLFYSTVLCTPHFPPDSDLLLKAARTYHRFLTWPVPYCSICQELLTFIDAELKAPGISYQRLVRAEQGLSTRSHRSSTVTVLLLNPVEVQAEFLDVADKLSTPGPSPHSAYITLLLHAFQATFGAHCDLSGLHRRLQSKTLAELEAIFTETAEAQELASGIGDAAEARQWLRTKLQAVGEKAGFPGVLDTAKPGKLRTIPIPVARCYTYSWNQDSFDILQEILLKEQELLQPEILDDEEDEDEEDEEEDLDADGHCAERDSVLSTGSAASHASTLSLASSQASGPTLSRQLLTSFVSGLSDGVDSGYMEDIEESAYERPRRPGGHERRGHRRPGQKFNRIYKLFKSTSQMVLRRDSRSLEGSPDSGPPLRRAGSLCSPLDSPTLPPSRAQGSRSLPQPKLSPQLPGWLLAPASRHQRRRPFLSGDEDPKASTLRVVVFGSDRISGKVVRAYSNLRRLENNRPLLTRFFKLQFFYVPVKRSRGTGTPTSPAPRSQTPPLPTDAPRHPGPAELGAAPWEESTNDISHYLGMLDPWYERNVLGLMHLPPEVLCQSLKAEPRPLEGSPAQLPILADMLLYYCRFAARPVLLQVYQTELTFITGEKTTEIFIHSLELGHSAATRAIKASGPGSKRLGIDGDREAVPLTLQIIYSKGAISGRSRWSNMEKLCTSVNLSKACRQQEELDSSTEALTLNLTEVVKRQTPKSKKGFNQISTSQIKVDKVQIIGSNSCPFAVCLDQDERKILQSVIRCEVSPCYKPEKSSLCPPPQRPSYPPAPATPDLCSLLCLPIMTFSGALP

Mus musculus p84 (mouse) = target: T2, Mus musculus p84 (mouse) (UniProt Q3U6Q4); assay: as above
T2 sequence: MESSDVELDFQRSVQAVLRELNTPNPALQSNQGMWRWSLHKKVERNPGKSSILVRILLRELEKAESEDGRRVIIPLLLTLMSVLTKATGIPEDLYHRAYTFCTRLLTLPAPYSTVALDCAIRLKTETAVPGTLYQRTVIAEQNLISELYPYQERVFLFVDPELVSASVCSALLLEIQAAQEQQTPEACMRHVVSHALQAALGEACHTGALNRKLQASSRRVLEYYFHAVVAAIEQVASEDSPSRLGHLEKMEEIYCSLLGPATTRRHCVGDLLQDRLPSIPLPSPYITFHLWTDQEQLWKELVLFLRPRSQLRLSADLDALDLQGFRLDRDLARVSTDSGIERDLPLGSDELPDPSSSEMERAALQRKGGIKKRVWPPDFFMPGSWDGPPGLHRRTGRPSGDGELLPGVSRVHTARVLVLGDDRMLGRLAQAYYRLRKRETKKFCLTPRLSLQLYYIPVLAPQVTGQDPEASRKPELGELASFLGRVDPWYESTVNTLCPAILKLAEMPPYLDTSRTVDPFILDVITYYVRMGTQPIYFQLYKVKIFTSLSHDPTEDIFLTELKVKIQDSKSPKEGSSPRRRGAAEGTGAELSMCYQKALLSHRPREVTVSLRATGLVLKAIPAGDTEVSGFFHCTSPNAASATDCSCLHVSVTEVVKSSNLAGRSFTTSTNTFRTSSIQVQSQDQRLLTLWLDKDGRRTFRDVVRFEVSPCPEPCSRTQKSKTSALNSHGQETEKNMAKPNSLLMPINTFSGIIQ

binding [1]: binds | binding (Mus musculus p84 (mouse)): binds
Substance: p110γ co-expressed with tagged p84 or p101 (from UniProt P48736 1-1102) (enzyme)
